# From PubChem BioAssay AID1439 (NMMLSC, 2008)
# Protein sequences, listed by entry. Tags and fused reporters are not part of them.
# UniProt P09471, whole entry, looked up: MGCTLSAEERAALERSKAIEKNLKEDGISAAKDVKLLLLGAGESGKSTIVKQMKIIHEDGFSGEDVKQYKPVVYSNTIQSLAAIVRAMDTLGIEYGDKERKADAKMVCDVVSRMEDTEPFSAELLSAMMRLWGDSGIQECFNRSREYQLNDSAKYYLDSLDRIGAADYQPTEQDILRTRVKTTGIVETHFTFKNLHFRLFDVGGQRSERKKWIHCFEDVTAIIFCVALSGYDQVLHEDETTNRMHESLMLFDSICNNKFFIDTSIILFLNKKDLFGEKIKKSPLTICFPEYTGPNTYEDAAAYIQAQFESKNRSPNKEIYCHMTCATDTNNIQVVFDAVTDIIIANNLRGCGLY
# Where “and” joins values, the source holds several entries; their conditions need not be identical. Equal values may be shown once. The campaign covered roughly 220,000 compounds. About 770 (0.35%) were called active. Inconclusive results, whose numbers are uncertain, are shown with a selection of clear calls. Cut-off read from the data, not from the text of the source: active = binding response below about 49% or above about 150%; inconclusive = no clear call, values can overlap the other calls; inactive = in between. Some structures have more than one record in an assay (separate samples or runs), and their calls can disagree.
# Target: Guanine nucleotide-binding protein G(o) subunit alpha (Homo sapiens) (UniProt P09471)
# Experiment: compounds changing RGS7 association with Galphao – biochemical, multiplexed bead flow cytometry, primary screen (AID 1439);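 note: fluorescent Galphao held in activated GDP-AlF4 state binding bead-coupled RGS7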
# Settings: at 10 µM, actives lie on both sides
row,Compound,binding response (% of control)
1,O=C(O)C(Cc1cnc[nH]1)NS(=O)(=O)c1ccc(Cl)cc1 (stereo not drawn),inactive: 105%
2,O=C1NC(=O)C2(Cc3ccccc3N3CCCC32)C(=O)N1 (stereo not drawn),inactive: 99.6%
3,O=C1Nc2ccccc2Sc2ccccc21,inconclusive: 114%
4,CC(=O)c1c(O)n(-c2cccc(Cl)c2)c(=O)[nH]c1=O (tested in a mixture with another compound),inconclusive: 83.6%
5,O=c1[nH]c(=S)n(C2CC2)c(O)c1C=NCc1cccnc1,inconclusive: 126%
6,CC(C)(C)N1C(=O)NC(=O)/C(=C\c2ccc3c(c2)CCN3CCCCl)C1=O,inconclusive: 116%
7,Cn1c(O)c(C=NCCN2CCOCC2)c(=O)[nH]c1=S,inconclusive: 165%
8,O=C1CCCN1CC#CCN1CCCC1,inconclusive: 92.7%
9,CC(=O)NN1C(=O)c2ccccc2NC1c1cccnc1 (stereo not drawn),inactive: 105%
10,O=P(O)(Oc1ccccc1)OC(c1ccccc1)C(F)(F)C(F)(F)F (stereo not drawn),inconclusive: 124%
11,CNS(=O)(=O)c1ccc(N=Cc2c(O)n(-c3ccc(C)cc3)c(=O)[nH]c2=O)cc1,inconclusive: 97.5%
12,O=C1OC(c2ccc(Br)cc2)=N/C1=C\N1CC2CC(C1)c1cccc(=O)n1C2 (stereo not drawn),inconclusive: 102%
13,CC(C)c1ccc(-n2c(O)c(/C=N/NC(=O)c3ccccc3O)c(=O)[nH]c2=S)cc1,inconclusive: -47.8%
14,CC(=O)N1CCN(CC(=O)Nc2ccc(C#N)c(Cl)c2)CC1,inconclusive: 110%
15,Cc1cccc(NC(=O)OC2CN3CCC2CC3)c1 (stereo not drawn),inconclusive: 452%
16,O=C1NC(=S)NC(=O)C1=Cc1ccc2c(c1)CCN2CCCCl,inconclusive: 71.6%
17,O=P(Oc1ccccc1)(Oc1ccccc1)C(Nc1ccccc1)c1ccccc1 (stereo not drawn),inactive: 68.3%
18,C/C(=N\NC(=O)c1ccncc1)c1c(O)n(Cc2ccccc2)c(=O)[nH]c1=O,inconclusive: 105%
19,CCOP(=O)(C#CC(C)(C)C)C(O)(c1ccccc1)C(F)(F)F (stereo not drawn),inactive: 92.4%
20,Cc1ccc(C2N3CCCN23)cc1 (stereo not drawn),inconclusive: 99.9%
21,O=c1c2ccccc2nc(-c2ccco2)n1-c1ccc(Br)cc1,inconclusive: 101%
22,COc1ccc(C2CN(C)CC2C(=O)c2ccc(C)cc2)cc1Cl (stereo not drawn),inactive: 112%

# Part of the list above in order of SMILES length, largest number first:
row,Compound,binding response (% of control)
13,CC(C)c1ccc(-n2c(O)c(/C=N/NC(=O)c3ccccc3O)c(=O)[nH]c2=S)cc1,inconclusive: -47.8%
12,O=C1OC(c2ccc(Br)cc2)=N/C1=C\N1CC2CC(C1)c1cccc(=O)n1C2 (stereo not drawn),inconclusive: 102%
6,CC(C)(C)N1C(=O)NC(=O)/C(=C\c2ccc3c(c2)CCN3CCCCl)C1=O,inconclusive: 116%
17,O=P(Oc1ccccc1)(Oc1ccccc1)C(Nc1ccccc1)c1ccccc1 (stereo not drawn),inactive: 68.3%
10,O=P(O)(Oc1ccccc1)OC(c1ccccc1)C(F)(F)C(F)(F)F (stereo not drawn),inconclusive: 124%
1,O=C(O)C(Cc1cnc[nH]1)NS(=O)(=O)c1ccc(Cl)cc1 (stereo not drawn),inactive: 105%
4,CC(=O)c1c(O)n(-c2cccc(Cl)c2)c(=O)[nH]c1=O (tested in a mixture with another compound),inconclusive: 83.6%
22,COc1ccc(C2CN(C)CC2C(=O)c2ccc(C)cc2)cc1Cl (stereo not drawn),inactive: 112%
21,O=c1c2ccccc2nc(-c2ccco2)n1-c1ccc(Br)cc1,inconclusive: 101%
2,O=C1NC(=O)C2(Cc3ccccc3N3CCCC32)C(=O)N1 (stereo not drawn),inactive: 99.6%
7,Cn1c(O)c(C=NCCN2CCOCC2)c(=O)[nH]c1=S,inconclusive: 165%
9,CC(=O)NN1C(=O)c2ccccc2NC1c1cccnc1 (stereo not drawn),inactive: 105%
15,Cc1cccc(NC(=O)OC2CN3CCC2CC3)c1 (stereo not drawn),inconclusive: 452%
3,O=C1Nc2ccccc2Sc2ccccc21,inconclusive: 114%
8,O=C1CCCN1CC#CCN1CCCC1,inconclusive: 92.7%

# Continued.

row,Compound,binding response (% of control)
1,COc1cc(C=C2C(=O)NC(=O)NC2=O)ccc1OCc1ccc([N+](=O)[O-])cc1,inconclusive: 63.6%
2,O=c1[nH]c(=O)n(C2CCCCCC2)c(O)c1C=NCc1cccnc1,inconclusive: 102%
3,CCCCCCC(=O)N/N=C/c1c(O)n(CCCC)c(=S)[nH]c1=O,inconclusive: 25.3%
4,O=C1/C(=C\c2cc3c(cc2Br)OCO3)N2CCC1CC2,inactive: 101%
5,CN(CCc1nnc(N)s1)[N+](=O)[O-],inconclusive: 122%
6,CN1C(=O)CN=C(c2ccccc2)c2cc([N+](=O)[O-])ccc21,inactive: 101%
7,Brc1ccc(CN2CCNCC2)s1,inactive: 99.9%
8,CC(C)C(C)(NC(=O)c1cccn(Cc2ccc3c(c2)OC(F)(F)O3)c1=O)C(N)=O (stereo not drawn),inactive: 102%
9,Nc1c(C(=O)NCCN2CCOCC2)c2nc3ccccc3nc2n1Cc1ccccc1,inconclusive: 83%
10,O=c1[nH]c(=S)n(C2CC2)c(O)c1C=NCCN1CCOCC1,inconclusive: 116%
11,CCCN(CCC)[C@@H]1CCc2cccc(O)c2C1,inconclusive: 146%
12,O=C1CCCN1c1ccc(S(=O)(=O)O)cc1 (tested in a mixture with another compound),inactive: 102%
13,c1cc(C2N3CCCN2CC3)ccn1 (stereo not drawn),inconclusive: 105%
14,C=CCNC(=S)Nc1ccc(OC(=O)Nc2ccc(Cl)c(Cl)c2)cc1,inconclusive: 94.6%
15,C=C1C(=O)O[C@@H]2C[C@@H](C)[C@@H]3C=CC(=O)[C@@]3(C)[C@@H](OC(=O)CC(=O)O[C@H]3[C@@H]4C(=C)C(=O)O[C@@H]4C[C@@H](C)[C@@H]4C=CC(=O)[C@]43C)[C@H]12,inconclusive: 63%
16,C=CCn1c(O)c(C=NCCCn2ccnc2)c(=O)[nH]c1=O,inconclusive: 825%
17,COc1ccc(-n2c(O)c(C(C)=NCCc3c[nH]c4ccccc34)c(=O)[nH]c2=O)cc1,inconclusive: 97.5%
18,CCCC(=O)c1cc(CP(=O)(OCC)OCC)oc1C,inconclusive: 417%
19,CCCC1(CCC)C(=O)NC(=Nc2ccc(C)cc2)NC1=O,inconclusive: 74.4%
20,COc1ccc2c(c1O)[C@]13CCN(C)[C@H](C2)[C@@H]1CCC(=O)C3,inconclusive: -107%
21,CC(=O)N1N=C2C3CCN(CC3)C2C1c1ccc(Br)cc1 (stereo not drawn),inconclusive: 107%
22,CC(=O)N1N=C(c2cccnc2)OC1c1ccccc1Cl (stereo not drawn),inconclusive: 85%

row,Compound,binding response (% of control)
1,CC(=NCCN1CCCCC1)c1c(O)n(-c2ccccc2)c(=O)[nH]c1=O,inconclusive: 76%
2,CCN1C(=O)C(=Cc2ccc(N3CCOCC3)o2)C(=O)N(CC)C1=S,inconclusive: 291%
3,COc1ccc(CCNC2CCCCC2)cc1OC,inactive: 94.8%
4,Cn1c(=O)c2c(nc(N/N=C/c3c(O)n(C4CCCCC4)c(=S)[nH]c3=O)n2C)n(C)c1=O,inconclusive: 89.3%
5,CCc1ccc(NC(=O)CN2CC(c3ccccc3)CC2=O)cc1 (stereo not drawn),inconclusive: 107%
6,Cn1nc(-c2ccc(OCC(=O)N3CCN(Cc4ccccc4)CC3)cc2)c2ccccc2c1=O,inactive: 103% and active: 42.3%
7,CCOC(=O)c1ccc(N=C(CC)c2c(O)n(C)c(=O)n(C)c2=O)cc1,inconclusive: 97.9%
8,O=c1[nH]c(=S)[nH]c(O)c1N=Nc1ccc(SC(F)F)cc1,inconclusive: 233%
9,COc1ccc(C2c3c(nc(C)[nH]c3=O)Oc3c2c(=O)oc2ccccc32)cc1 (stereo not drawn),inconclusive: 100%
10,CCC(C)n1c(O)c(C=NCc2cccnc2)c(=O)[nH]c1=S (stereo not drawn),inconclusive: 108%
11,COCCNC(=O)CN1C(=O)CN=C(c2ccccc2)c2ccccc21,inconclusive: 104%
12,Cc1cc(C(=O)CN2CCCC2)c(C)n1-c1ccc(F)cc1,inconclusive: 88%
13,Cc1ccc(C(=O)N[C@@H](C)CN2C3=NC[C@H](Cc4ccccc4)N3C[C@H]2Cc2ccc(O)cc2)cc1Br,inconclusive: 65.9%
14,CCOC(=O)c1[nH]ncc1CN1CCCC(C(=O)c2cccc(Cl)c2)C1 (stereo not drawn),inconclusive: 93.9%
15,Cc1ccccc1NC(=O)CCl,inconclusive: 114%
16,C=CCN=C(SCC(=O)c1ccc(Cl)cc1)c1c(O)n(C)c(=O)n(C)c1=O,inconclusive: 62.7%
17,O=c1[nH]c(=O)n(CCC2=CCCCC2)c(O)c1C=Nc1cccc(F)c1,inactive: 113%
18,c1ccc(P(c2ccccc2)c2ccccn2)cc1,inconclusive: 105%
19,CC1=NN(c2ccccc2)C(=O)/C1=C/c1c(O)[nH]c(=O)[nH]c1=O,inconclusive: 78.4%
20,N#CC(C#N)=Cc1ccc(C=C(C#N)C#N)cc1,inconclusive: 118%
21,O=C(N/N=C/c1c(O)n(Cc2ccccc2)c(=O)[nH]c1=O)c1ccncc1,inconclusive: 65.7%
22,COCCOC(=O)c1c(C)oc2ccc(OC(=O)N(C)C)cc12,inactive: 98.2%

row,Compound,binding response (% of control)
1,COc1ccc(Cn2c(O)c(/C=N/NC(=O)c3ccncc3)c(=O)[nH]c2=O)cc1,inconclusive: 93.4%
2,CN(C)C(Cc1ccc(Cl)cc1)C(=O)c1ccccc1 (stereo not drawn),inactive: 104%
3,CC1(C)CC(N(CCc2ccccc2)Cc2ccccc2)CCO1 (stereo not drawn),inconclusive: 97.5%
4,O=C(Cc1ccccc1)OCn1nnc2ccccc2c1=O,inactive: 102%
5,Cc1oc(-c2ccccc2Cl)nc1CN1C(=O)CN=C(c2ccccc2)c2ccccc21,inactive: 109%
6,O=C1NS(=O)c2cc([N+](=O)[O-])cc([N+](=O)[O-])c21 (stereo not drawn),inconclusive: 113%
7,COc1cccc(N=Nc2c(O)[nH]c(=S)[nH]c2=O)c1,inconclusive: 200%
8,C1=C(c2ccccc2)CCNC1,inconclusive: 101%
9,CCOc1ccc2nc(N=Nc3c(O)[nH]c(=S)[nH]c3=O)sc2c1,inconclusive: 98.6%
10,Cc1ccc2c(c1)=NC(=O)/C(=C/c1c(O)[nH]c(=O)[nH]c1=O)C=2,inconclusive: 59.7%
11,N#CCCn1cc(C(=O)Nc2ccc([N+](=O)[O-])cc2)c(-c2ccccc2)n1,inconclusive: 111%
12,Cc1cccc(N2C(=O)NC(=O)/C(=C\c3cccn3-c3ccc(Cl)cc3)C2=O)c1,active: 233% [activator]
13,C=C1C(=O)O[C@H]2C[C@@H](C)[C@@H]3C=CC(=O)[C@@]3(C)C[C@H]12,inconclusive: 118%
14,Cc1ccc(N2C(=O)NC(=O)/C(=C\c3ccoc3)C2=O)cc1,inconclusive: 69.1%
15,C=CCN1CC[C@]23c4c5ccc(O)c4OC2C(=O)CC[C@@]3(O)C1C5 (stereo partly drawn),inconclusive: 105%
16,CC(=Nc1ccc2c(c1)CCC2)c1c(O)n(-c2ccccc2)c(=O)[nH]c1=O,inconclusive: 104%
17,COc1ccccc1-n1c(O)c(C=NCCN2CCNCC2)c(=O)[nH]c1=O,inactive: 98%
18,CSc1nc2ccc(C)cc2c(=O)n1-c1cccnc1,inconclusive: 103%
19,O=C(CCC(=O)N1CCC2(CC1)OCCO2)Nc1nnc(C(F)(F)F)s1,inactive: 99.4%
20,COC(=O)C1=COC(C)C2CN3CCC4(C(=O)Nc5ccccc54)C3CC12 (stereo not drawn),inconclusive: 117%
21,Cc1ccc(NC(=O)c2cc(-c3ccccc3)n(CCCN3CCOCC3)c2C)cc1,inconclusive: 144%
22,O=c1[nH]c(O)c(C=Nc2ccccc2Sc2ccccc2)c(=O)[nH]1,inconclusive: 96.9%
